# According to PMC10284917:
# Chains of the proteins cited; added tags and fusions are not shown. Residues count along the entry.
# UniProt Q27J81: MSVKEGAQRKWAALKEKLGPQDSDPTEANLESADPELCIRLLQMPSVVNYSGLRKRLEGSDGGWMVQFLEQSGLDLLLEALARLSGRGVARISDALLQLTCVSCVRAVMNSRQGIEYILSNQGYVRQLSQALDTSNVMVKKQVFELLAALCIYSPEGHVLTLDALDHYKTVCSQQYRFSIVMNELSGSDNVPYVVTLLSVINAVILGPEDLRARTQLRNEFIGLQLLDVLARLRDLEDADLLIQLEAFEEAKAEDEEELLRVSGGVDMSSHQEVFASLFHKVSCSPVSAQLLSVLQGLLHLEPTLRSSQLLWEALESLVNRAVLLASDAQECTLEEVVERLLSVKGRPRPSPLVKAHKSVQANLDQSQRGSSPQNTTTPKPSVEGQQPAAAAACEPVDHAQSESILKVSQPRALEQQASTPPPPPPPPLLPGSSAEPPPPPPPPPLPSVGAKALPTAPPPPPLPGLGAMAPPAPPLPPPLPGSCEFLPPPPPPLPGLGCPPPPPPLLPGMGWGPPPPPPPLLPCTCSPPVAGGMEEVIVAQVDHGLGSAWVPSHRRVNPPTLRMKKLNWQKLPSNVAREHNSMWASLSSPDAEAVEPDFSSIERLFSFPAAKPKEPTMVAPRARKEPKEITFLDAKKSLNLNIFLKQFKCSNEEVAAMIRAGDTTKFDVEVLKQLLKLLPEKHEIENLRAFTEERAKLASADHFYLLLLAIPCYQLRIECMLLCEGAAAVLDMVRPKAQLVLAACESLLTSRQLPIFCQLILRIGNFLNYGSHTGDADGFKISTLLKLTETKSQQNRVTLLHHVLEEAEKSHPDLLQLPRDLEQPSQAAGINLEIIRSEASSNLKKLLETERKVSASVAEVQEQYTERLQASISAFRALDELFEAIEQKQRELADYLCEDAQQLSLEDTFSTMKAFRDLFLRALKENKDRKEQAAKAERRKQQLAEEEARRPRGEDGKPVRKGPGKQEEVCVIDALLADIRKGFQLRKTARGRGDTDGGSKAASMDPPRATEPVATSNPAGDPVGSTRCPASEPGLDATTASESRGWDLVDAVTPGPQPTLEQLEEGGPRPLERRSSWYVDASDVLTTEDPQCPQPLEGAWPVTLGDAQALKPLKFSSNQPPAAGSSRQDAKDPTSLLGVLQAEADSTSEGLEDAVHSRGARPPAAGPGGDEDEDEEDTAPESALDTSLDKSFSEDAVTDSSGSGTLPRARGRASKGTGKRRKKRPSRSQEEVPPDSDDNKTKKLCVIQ
# UniProt Q01518: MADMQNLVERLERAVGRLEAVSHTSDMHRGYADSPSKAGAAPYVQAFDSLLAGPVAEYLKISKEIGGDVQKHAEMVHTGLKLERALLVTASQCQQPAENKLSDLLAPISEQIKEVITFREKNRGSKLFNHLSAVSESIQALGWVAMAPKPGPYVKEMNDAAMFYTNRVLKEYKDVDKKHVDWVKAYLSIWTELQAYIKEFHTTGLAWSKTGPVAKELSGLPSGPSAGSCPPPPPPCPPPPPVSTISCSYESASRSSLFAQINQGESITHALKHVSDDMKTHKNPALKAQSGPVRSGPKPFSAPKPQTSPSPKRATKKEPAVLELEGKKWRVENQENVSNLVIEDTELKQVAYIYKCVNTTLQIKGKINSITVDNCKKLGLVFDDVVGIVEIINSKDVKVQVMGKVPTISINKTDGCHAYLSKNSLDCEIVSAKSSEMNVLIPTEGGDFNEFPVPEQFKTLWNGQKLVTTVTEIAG
# UniProt P30520: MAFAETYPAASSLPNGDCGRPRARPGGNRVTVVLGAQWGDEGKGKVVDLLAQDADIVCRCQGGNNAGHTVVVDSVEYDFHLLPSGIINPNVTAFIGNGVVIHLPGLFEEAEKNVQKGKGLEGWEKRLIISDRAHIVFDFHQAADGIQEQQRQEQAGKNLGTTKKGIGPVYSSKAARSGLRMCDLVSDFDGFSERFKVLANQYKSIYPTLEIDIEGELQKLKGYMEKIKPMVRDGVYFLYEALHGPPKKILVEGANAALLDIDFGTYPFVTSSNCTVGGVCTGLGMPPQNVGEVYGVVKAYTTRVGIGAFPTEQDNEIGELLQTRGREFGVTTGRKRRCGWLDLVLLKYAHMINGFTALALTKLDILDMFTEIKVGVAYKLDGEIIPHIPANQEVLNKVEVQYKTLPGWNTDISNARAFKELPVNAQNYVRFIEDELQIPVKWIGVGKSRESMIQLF
# UniProt Q15118, residues 29-436: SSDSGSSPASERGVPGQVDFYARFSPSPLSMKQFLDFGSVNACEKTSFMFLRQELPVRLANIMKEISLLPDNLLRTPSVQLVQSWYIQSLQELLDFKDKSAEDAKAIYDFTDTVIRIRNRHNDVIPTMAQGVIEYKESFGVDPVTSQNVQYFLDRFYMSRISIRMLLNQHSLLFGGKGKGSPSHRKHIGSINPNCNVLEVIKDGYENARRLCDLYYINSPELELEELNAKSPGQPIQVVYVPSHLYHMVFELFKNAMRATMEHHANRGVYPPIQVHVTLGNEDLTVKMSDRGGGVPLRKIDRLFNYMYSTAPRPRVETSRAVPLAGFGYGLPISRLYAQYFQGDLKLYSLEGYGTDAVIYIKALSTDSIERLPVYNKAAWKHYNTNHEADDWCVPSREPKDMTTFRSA
# Target: FLAG-INF2 (INF2-CAXX, ER-localized inverted formin 2) (UniProt Q27J81)
# Assay: affinity purification with mass spectrometry; FLAG-INF2 protein complex from HEK-293T cells; anti-FLAG M2 agarose beads, eluted with FLAG peptide, SDS-PAGE, Coomassie Blue staining, mass spectrometry
row,binding,Substance
1,binds,CAP1 (from UniProt Q01518 1-475)
2,binds,ADSS (from UniProt P30520 1-456)
3,binds,PDK1 (from UniProt Q15118 29-436)

# These are yes or no findings as the source states them, for the method shown. Binding seen in cells or lysates may run through a third protein. Here binding means that the protein was enriched with, or labelled near, the bait; the list need not be complete.
